Results as given in PMC4728409.
Results are given in words; binding and its absence hold for the method and conditions named. Binding seen in cells or lysates may run through a third protein. Some binding calls cover weakened binding; strength is not graded here.

The chains behind the UniProt entries cited, without tags or fusion partners.
UniProt Q12888: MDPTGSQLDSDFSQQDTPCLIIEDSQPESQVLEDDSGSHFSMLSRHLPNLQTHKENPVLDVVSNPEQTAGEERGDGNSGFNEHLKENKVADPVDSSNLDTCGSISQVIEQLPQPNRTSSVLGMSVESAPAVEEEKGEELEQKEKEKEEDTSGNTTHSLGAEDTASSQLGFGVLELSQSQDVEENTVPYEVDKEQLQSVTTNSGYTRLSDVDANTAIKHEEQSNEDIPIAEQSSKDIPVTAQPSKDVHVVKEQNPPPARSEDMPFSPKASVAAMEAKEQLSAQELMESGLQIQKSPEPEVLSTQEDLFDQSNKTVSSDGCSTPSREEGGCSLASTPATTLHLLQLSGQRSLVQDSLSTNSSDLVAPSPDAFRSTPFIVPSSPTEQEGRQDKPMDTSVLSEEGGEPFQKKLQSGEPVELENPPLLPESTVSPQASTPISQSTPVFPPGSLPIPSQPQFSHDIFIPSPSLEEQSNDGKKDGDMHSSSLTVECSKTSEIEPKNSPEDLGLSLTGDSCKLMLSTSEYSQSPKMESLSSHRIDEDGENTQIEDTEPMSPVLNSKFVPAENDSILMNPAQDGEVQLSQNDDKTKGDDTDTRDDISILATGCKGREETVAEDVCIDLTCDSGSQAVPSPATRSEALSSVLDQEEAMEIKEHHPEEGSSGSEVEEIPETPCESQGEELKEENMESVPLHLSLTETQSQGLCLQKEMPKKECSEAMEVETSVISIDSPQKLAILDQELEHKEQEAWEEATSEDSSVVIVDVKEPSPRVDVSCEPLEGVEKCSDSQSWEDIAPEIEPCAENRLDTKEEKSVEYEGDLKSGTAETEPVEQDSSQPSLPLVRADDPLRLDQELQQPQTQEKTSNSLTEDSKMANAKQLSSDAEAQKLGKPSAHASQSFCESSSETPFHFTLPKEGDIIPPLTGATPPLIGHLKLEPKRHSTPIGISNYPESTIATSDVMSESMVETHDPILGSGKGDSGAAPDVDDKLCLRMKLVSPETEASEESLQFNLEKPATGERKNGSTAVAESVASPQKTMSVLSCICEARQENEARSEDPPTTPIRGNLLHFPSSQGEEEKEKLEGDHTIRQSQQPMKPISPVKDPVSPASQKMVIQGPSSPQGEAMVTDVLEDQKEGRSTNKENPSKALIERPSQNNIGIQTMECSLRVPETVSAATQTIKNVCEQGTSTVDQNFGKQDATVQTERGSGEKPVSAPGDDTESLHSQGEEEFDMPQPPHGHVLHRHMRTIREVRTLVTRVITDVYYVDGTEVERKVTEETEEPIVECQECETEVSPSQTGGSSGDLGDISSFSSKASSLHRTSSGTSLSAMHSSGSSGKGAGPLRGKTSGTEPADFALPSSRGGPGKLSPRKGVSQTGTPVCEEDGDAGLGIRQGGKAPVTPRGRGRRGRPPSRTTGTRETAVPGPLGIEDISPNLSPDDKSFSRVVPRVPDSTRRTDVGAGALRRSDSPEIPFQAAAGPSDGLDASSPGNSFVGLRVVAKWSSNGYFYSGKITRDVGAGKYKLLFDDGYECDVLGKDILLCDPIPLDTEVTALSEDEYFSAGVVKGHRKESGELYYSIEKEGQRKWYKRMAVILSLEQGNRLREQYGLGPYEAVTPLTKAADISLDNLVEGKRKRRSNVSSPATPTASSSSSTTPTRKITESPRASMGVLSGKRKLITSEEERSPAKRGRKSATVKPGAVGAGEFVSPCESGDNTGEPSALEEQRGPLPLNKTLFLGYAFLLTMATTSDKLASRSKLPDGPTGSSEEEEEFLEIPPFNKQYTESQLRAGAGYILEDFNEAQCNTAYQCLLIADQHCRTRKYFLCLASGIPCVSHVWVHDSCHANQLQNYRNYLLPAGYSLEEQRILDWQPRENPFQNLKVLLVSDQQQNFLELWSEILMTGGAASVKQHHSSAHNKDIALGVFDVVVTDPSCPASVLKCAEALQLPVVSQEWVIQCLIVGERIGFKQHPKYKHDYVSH
UniProt Q5UIP0: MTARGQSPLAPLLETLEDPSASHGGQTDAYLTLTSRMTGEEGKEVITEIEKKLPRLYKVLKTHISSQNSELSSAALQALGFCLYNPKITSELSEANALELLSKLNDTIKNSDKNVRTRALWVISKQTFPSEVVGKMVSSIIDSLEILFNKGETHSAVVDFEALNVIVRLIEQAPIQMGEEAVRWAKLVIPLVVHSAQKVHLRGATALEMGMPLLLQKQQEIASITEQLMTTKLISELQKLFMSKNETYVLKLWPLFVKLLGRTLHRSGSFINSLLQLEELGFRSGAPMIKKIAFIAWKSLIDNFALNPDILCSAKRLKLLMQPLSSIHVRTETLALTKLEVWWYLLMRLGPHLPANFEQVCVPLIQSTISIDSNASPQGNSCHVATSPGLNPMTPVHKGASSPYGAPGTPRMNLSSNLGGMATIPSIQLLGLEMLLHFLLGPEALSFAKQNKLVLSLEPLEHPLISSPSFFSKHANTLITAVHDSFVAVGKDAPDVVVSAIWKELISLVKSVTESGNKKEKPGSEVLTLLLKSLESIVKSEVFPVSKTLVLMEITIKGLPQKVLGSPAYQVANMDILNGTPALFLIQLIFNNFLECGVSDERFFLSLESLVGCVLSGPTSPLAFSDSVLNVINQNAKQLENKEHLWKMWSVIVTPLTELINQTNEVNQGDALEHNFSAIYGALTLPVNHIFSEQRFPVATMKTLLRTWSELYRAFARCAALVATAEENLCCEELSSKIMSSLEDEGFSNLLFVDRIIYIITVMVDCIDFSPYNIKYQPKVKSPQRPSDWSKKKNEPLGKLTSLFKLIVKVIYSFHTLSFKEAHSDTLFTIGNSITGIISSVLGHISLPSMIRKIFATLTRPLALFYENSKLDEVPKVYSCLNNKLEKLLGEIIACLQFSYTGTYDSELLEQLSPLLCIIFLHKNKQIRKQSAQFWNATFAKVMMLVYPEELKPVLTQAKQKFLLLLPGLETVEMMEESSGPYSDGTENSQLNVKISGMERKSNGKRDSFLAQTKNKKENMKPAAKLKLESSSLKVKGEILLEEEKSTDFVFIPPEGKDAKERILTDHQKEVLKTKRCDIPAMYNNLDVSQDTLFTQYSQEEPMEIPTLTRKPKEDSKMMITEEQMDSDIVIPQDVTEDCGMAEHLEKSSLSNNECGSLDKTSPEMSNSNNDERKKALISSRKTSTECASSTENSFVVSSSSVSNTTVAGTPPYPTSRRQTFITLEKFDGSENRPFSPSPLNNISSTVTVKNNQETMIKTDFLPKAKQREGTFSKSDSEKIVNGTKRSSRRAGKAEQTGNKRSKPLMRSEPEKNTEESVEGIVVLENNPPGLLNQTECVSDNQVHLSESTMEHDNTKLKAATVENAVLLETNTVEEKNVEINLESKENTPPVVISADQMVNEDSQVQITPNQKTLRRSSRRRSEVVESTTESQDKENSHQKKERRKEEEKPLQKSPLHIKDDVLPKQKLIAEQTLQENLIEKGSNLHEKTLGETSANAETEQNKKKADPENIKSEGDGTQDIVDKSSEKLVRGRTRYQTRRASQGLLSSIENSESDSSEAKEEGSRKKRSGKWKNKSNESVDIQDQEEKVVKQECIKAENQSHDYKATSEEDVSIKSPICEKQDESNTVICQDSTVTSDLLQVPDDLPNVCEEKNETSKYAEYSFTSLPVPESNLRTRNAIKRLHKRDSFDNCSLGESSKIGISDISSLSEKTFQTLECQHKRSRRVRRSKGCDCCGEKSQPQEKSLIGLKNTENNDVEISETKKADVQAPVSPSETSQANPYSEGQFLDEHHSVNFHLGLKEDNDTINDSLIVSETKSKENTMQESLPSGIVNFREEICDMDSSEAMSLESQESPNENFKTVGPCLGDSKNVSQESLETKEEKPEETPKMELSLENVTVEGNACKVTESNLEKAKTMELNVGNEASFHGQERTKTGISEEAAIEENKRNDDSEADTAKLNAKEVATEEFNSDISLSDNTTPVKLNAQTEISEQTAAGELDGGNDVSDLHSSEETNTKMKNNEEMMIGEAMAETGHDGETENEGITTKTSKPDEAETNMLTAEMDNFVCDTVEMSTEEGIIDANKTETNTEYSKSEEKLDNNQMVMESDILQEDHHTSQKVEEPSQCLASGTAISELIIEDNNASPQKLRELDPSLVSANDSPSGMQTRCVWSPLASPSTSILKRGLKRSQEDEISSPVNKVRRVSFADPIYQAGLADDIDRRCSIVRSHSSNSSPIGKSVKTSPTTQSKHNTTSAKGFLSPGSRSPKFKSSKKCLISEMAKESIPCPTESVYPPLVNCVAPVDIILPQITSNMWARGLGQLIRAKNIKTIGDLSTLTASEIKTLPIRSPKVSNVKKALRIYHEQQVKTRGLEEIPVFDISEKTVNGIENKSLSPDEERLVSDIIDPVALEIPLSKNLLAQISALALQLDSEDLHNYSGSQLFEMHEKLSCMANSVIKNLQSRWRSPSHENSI

Tests used:
[1] = target: 53BP1 (in HEK 293T cells stably expressing UHRF1 shRNA) (UniProt Q12888); assay: co-IP; HEK 293T cells stably expressing UHRF1 shRNA, transfected with the indicated constructs; G1 phase, or S phase with UHRF1 S674A or H754A
[2] = target: 53BP1 (in HEK 293T cells stably expressing UHRF1 shRNA) (UniProt Q12888); assay: co-IP; HEK 293T cells stably expressing UHRF1 shRNA, transfected with the indicated constructs, synchronized at S phase

- binding [1]: binds
Substance: RIF1 (in HEK 293T cells stably expressing UHRF1 shRNA) (from UniProt Q5UIP0 1-2472)
- binding [2]: no binding (condition: cells synchronized at S phase)
